Among the data in article PMC7570921 (Molecules, 2020) are conjugation yield values, retold here.

The series is described as follows: general procedure: peptide synthesis; HATU. Particulars: conjugation step.

HELM strings list residues between dots; [ac] is acetyl, [am] amide, other brackets name non-standard units.

Substance DBCO-GAGRRAAG yielded a conjugation yield of 55.8%. With “PEPTIDE1{[DBCO].G.A.G.R.R.A.A.G.[DOX]}$$$$V2.0” the figure was 60.5%.
